The target in assay [1] is hIL-1RAP(1-367)_F-chLys_Avi (human). The assay is described as follows: ELISA on human IL-1RAcP (AG-12210), IgG1f_AEASS titrated 0.007-200 nM, AP-coupled secondary antibody with AttoPhos, signal over background (S/BG).
The target is the same in assay [2]. Kind of assay: ELISA binning; competitor: coated Y024148 FabCys-AviHis; 1.5 nM biotinylated human IL-1RAcP (AG-12210) pre-incubated with the titrated Fab; captured IL-1RAcP detected with streptavidin-AP.
For assay [3] the target is unchanged. The assay is described as follows: ELISA binning; competitor: coated CAN04 FabCys-AviHis; 1.5 nM biotinylated human IL-1RAcP (AG-12210) pre-incubated with the titrated Fab; captured IL-1RAcP detected with streptavidin-AP.
Assay [4] shares this target. The assay is described as follows: ELISA binning; competitor: coated Y024084 FabCys-AviHis (sheet title Y024084_FAB COATED); 1.5 nM biotinylated human IL-1RAcP (AG-12210) pre-incubated with the titrated Fab; captured IL-1RAcP detected with streptavidin-AP. (ELISA stands for enzyme-linked immunosorbent assay.)
The target is the same in assay [5]. Kind of assay: ELISA binning; competitor: coated 1A05 FabCys-AviHis; 1.5 nM biotinylated human IL-1RAcP (AG-12210) pre-incubated with the titrated Fab; captured IL-1RAcP detected with streptavidin-AP.
Assay [6] shares this target. The assay is described as follows: ELISA binning; competitor: coated Y024149 FabCys-AviHis (sheet title Y024149_FAB COATED); 1.5 nM biotinylated human IL-1RAcP (AG-12210) pre-incubated with the titrated Fab; captured IL-1RAcP detected with streptavidin-AP.

Results are given in words; binding and its absence hold for the method and conditions named. Some entries that bind do so weakly or less than the wild type.

B1: Y024148_h_IgG1f_AEASS (antibody, V domains shown)
VH: EVQLVESGGGLVQPGGSLRLSCAASGGTIGGSAVHWVRQAPGKGLVWVSRILTYSSTTQYAESVKGRFTISRDNAKNTLYLQMNSLRAEDTAVYYCARGSSEYPKFDIWGQGTLVTVSS
VL: DIQMTQSPSTLSASVGDRVTITCRASQSISSWLAWYQQKPGKAPKLLIYDASSLESGVPSRFSGSGSGTEFTLTISSLQPEDFATYYCHQLLIYPHTFGQGTKVEIKR
B1: the binding entry in assay [1] is reported as “binds”.

B2: Y024148_h_FabCys-AviH (Fab, V domains shown)
VH: EVQLVESGGGLVQPGGSLRLSCAASGGTIGGSAVHWVRQAPGKGLVWVSRILTYSSTTQYAESVKGRFTISRDNAKNTLYLQMNSLRAEDTAVYYCARGSSEYPKFDIWGQGTLVTVSS
VL: DIQMTQSPSTLSASVGDRVTITCRASQSISSWLAWYQQKPGKAPKLLIYDASSLESGVPSRFSGSGSGTEFTLTISSLQPEDFATYYCHQLLIYPHTFGQGTKVEIKR
Turning to B2, the binding entry in assay [2], in assay [3], in assay [4], in assay [5] and in assay [6] was “binds” in each case.

B3: Y024149_h_FabCys-AviH (Fab, V domains shown)
VH: EVQLVESGGGLVQPGGSLRLSCAASGGTFGGSAMHWVRQAPGKGLVWVSRILTYGGIATYAESVKGRFTISRDNAKNTLYLQMNSLRAEDTAVYYCARGSSEYPKFDIWGQGTLVTVSS
VL: DIQMTQSPSTLSASVGDRVTITCRASQSISSWLAWYQQKPGKAPKLLIYDASSLESGVPSRFSGSGSGTEFTLTISSLQPEDFATYYCHQLLIYPHTFGQGTKVEIKR
Consider B3, for which the binding entry in assay [2], in assay [3], in assay [4], in assay [5] and in assay [6] was “binds” in each case.

B4: Y024149_h_IgG1f_AEASS (antibody, V domains shown)
VH: EVQLVESGGGLVQPGGSLRLSCAASGGTFGGSAMHWVRQAPGKGLVWVSRILTYGGIATYAESVKGRFTISRDNAKNTLYLQMNSLRAEDTAVYYCARGSSEYPKFDIWGQGTLVTVSS
VL: DIQMTQSPSTLSASVGDRVTITCRASQSISSWLAWYQQKPGKAPKLLIYDASSLESGVPSRFSGSGSGTEFTLTISSLQPEDFATYYCHQLLIYPHTFGQGTKVEIKR
B4: in assay [1], the binding entry was “binds”.

B5: R001031 (CAN04) (antibody, human IgG1, kappa, V domains shown)
VH: QVQLVQSGAEVKKPGSSVKVSCKASGYAFSSSWMNWVRQAPGQGLEWMGRIYPGDGNTHYAQKFQGRVTLTADKSTSTAYMELSSLRSEDTAVYYCGEGYLDPMDYWGQGTLVTVSS
VL: DIQMTQSPSSLSASVGDRVTITCSASQGINNYLNWYQQKPGKAPKLLIHYTSGLHAGVPSRFSGSGSGTDYTLTISSLQPEDVATYYCQQYSILPWTFGGGTKVEIKR
In the case of B5, the binding result in assay [1] was “binds”.

B6: R001032 (1A05) (antibody, human IgG1, kappa, V domains shown)
VH: LEQSGGGAEGGLVKPGGSLELCCKASGFSLSTSYWRCWVRQAPGKGLEWIGCIYAGSGDVTYYANWVNGRFTLSRDIDQSTGCLQLNSLTAADTAMYYCASGVGFGYFNLWGQGTLVTVSS
VL: ALVMTQTPSPVSAAVGGTVTINCQASEDIYSNLAWFQQKPGQPPKLLIYDASTLASGVPSRFSGSGSGTEFTLTISGLQSDDAATYYCLGVYTHISADNAFGGGTEVVVKR
Regarding B6, in assay [1], the binding result is listed as “binds”.

These data come from patent US20220411517A1.
